Source: patent publication US20240150841A1, “TAP63 REGULATED ONCOGENIC LONG NON-CODING RNAS” (H. LEE MOFFITT CANCER CENTER AND RESEARCH INSTITUTE, INC., priority 2021, published 2024)
No constants are given. Whether binding was seen depends on the method and setting. In cells and extracts the contact can be indirect. Some results given as binding are weak or reduced against the parent protein; the word gives no strength.

Chains of the proteins cited; added tags and fusions are not shown.
UniProt Q9H7D7: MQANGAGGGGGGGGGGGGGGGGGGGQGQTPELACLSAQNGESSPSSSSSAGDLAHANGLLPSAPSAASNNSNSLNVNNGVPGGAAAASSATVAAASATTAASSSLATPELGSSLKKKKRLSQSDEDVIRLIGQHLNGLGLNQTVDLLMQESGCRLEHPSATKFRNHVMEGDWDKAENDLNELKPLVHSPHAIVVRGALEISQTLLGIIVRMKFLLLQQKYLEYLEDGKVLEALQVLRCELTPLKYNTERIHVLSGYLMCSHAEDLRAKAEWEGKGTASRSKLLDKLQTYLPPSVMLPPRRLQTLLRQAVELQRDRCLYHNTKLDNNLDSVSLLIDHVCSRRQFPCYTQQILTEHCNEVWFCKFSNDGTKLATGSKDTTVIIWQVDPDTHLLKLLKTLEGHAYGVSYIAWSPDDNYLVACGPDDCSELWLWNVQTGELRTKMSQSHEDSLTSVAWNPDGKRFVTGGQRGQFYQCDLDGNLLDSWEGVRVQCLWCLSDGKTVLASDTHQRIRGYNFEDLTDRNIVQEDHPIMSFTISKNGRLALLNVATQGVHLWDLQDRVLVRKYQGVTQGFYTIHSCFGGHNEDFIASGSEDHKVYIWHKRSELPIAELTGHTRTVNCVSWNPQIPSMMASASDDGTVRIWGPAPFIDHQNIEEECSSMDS

Legend:
WDR26 (endogenous) [1] = molecular target: WDR26 (endogenous) (UniProt Q9H7D7); assay: co-immunoprecipitation of endogenous proteins, western blot (FIG. 11b)
WDR26 (endogenous) [2] = molecular target: WDR26 (endogenous) (UniProt Q9H7D7); assay: co-immunoprecipitation of endogenous proteins, western blot

B1: NOLC1 (also known as Nopp140) (protein, human, UniProt Q14978 1-699, looked up)
chain: MADAGIRRVVPSDLYPLVLGFLRDNQLSEVANKFAKATGATQQDANASSLLDIYSFWLKSAKVPERKLQANGPVAKKAKKKASSSDSEDSSEEEEEVQGPPAKKAAVPAKRVGLPPGKAAAKASESSSSEESSDDDDEEDQKKQPVQKGVKPQAKAAKAPPKKAKSSDSDSDSSSEDEPPKNQKPKITPVTVKAQTKAPPKPARAAPKIANGKAASSSSSSSSSSSSDDSEEEKAAATPKKTVPKKQVVAKAPVKAATTPTRKSSSSEDSSSDEEEEQKKPMKNKPGPYSSVPPPSAPPPKKSLGTQPPKKAVEKQQPVESSEDSSDESDSSSEEEKKPPTKAVVSKATTKPPPAKKAAESSSDSSDSDSSEDDEAPSKPAGTTKNSSNKPAVTTKSPAVKPAAAPKQPVGGGQKLLTRKADSSSSEEESSSSEEEKTKKMVATTKPKATAKAALSLPAKQAPQGSRDSSSDSDSSSSEEEEEKTSKSAVKKKPQKVAGGAAPSKPASAKKGKAESSNSSSSDDSSEEEEEKLKGKGSPRPQAPKANGTSALTAQNGKAAKNSEEEEEEKKKAAVVVSKSGSLKKRKQNEAAKEAETPQAKKIKLQTPNTFPKRKKGEKRASSPFRRVREEEIEVDSRVADNSFDAKRGAAGDWGERANQVLKFTKGKSFRHEKTKKKRGSYRGGSISVQVNSIKFDSE
WDR26 (endogenous) [1]
  binding: binds
WDR26 (endogenous) [2]
  binding: binds
